Binding data for one substance are collected here from paper PMC10824736.

No constants are given. Whether binding was seen depends on the method and setting. In cells and extracts the contact can be indirect. Some results given as binding are weak or reduced against the parent protein; the word gives no strength. Where a sequence is shown, tags or fusion partners need not be part of it.

This assay deals with T1, C-terminally FLAG-tagged NIPSNAP3B (UniProt Q9BS92).
T1 sequence: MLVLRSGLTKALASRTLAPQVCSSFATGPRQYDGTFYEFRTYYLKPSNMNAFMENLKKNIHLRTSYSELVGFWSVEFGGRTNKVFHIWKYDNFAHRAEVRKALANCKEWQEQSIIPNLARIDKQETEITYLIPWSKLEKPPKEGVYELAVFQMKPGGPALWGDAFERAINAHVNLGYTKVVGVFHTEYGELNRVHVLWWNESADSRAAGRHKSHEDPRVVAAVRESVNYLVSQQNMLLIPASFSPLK
In words: co-IP; lysates of BEAS-2B cells transfected with FLAG-tagged NIPSNAPs (with 10 uM Q-VD-OPH); anti-FLAG antibody beads overnight at 4 °C; lysis and wash buffer 1% Triton-X 100, 0.5% sodium deoxycholate, 0.15 M NaCl, 2 mM EDTA, 50 mM HEPES-NaOH 7.4; four washes; p62 detected by WB.

For the substance p62 (from UniProt Q13501 1-440), the binding result was “binds weakly”.
